For the assay, the target named is P300, a histone acetyltransferase (human (endogenous in NCI-H460)) (UniProt Q09472). Briefly: co-IP; co-IP with P300 antibody in NCI-H460 cells, followed by immunoblotting with the KLF12 antibody; endogenous proteins.

Sequences of proteins named here, by UniProt entry; tags and fusion partners are left off.
UniProt Q09472: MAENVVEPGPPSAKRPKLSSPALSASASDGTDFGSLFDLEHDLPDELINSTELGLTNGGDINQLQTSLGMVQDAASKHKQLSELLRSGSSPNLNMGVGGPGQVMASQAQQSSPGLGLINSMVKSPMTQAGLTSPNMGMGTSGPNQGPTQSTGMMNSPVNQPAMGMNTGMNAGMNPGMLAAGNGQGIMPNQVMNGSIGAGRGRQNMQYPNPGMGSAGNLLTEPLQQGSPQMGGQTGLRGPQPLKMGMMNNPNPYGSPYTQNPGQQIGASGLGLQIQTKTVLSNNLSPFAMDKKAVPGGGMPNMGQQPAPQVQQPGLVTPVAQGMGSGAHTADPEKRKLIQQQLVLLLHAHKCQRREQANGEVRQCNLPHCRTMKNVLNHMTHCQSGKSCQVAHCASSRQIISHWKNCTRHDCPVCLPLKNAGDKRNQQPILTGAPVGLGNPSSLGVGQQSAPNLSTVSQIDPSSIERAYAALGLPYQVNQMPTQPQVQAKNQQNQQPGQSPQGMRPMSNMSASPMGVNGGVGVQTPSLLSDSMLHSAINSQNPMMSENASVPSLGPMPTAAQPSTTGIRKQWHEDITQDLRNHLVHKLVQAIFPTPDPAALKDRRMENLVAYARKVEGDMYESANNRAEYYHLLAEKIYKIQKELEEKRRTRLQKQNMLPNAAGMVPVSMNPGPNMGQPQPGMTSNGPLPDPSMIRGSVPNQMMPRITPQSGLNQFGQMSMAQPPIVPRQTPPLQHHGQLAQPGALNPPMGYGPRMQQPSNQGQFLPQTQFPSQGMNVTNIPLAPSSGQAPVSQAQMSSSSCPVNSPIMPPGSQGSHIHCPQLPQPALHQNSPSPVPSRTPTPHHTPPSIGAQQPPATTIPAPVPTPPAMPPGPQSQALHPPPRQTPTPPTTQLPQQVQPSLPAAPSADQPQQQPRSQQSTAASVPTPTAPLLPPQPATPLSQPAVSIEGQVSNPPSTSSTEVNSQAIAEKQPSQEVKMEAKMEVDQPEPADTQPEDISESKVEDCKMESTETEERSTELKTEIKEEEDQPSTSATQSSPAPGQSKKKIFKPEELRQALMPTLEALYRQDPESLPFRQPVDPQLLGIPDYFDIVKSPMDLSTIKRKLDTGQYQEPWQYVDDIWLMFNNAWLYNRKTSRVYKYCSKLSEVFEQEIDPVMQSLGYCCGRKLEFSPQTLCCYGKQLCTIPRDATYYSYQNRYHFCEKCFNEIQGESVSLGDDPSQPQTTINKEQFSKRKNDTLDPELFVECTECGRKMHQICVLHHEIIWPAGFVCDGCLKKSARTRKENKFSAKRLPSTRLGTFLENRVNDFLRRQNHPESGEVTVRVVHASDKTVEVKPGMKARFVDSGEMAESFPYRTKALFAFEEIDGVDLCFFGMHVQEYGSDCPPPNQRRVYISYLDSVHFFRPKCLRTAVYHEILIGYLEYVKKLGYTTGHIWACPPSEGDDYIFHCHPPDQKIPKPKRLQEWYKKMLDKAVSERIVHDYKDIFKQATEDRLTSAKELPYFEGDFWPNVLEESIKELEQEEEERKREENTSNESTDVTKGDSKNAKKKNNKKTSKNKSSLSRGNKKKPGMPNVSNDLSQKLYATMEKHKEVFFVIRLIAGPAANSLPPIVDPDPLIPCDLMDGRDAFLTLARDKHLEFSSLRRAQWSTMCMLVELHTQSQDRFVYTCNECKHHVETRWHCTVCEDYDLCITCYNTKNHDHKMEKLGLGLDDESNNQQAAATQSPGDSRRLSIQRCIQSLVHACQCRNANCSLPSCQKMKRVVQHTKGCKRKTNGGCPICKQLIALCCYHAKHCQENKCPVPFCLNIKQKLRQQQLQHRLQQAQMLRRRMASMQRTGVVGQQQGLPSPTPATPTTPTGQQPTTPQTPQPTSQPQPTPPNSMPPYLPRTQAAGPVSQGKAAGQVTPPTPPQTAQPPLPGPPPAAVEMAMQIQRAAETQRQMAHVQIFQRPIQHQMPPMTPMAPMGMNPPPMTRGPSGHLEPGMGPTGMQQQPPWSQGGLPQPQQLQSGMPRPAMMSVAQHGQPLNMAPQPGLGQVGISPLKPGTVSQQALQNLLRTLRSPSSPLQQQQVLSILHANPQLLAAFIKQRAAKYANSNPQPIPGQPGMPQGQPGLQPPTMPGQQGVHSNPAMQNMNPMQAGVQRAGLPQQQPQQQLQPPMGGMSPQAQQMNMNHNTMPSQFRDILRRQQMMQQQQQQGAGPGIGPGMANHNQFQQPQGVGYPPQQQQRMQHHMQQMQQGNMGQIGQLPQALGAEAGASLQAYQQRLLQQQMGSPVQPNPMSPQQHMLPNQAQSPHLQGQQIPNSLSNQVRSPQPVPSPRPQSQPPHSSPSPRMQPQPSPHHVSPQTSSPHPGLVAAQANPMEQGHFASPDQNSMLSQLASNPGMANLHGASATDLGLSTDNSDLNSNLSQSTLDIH
UniProt Q9Y4X4: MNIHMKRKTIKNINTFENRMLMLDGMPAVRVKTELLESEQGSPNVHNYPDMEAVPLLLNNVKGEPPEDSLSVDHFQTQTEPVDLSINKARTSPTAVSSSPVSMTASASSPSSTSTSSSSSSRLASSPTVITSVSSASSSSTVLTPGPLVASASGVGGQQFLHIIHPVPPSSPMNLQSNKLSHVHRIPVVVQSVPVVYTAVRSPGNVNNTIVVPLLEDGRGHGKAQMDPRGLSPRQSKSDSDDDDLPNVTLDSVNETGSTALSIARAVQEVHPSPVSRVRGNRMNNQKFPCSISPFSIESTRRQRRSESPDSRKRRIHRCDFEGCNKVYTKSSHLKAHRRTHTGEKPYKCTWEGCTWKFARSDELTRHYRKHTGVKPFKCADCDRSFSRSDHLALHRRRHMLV

These are yes or no findings as the source states them, for the method shown. In cells and extracts the contact can be indirect. Some binding calls cover weakened binding; strength is not graded here.

In the case of “Krüpple-like factor 12 (KLF12) (from UniProt Q9Y4X4 1-402)”, the binding result was “binds”.

These data come from article PMC10701771.
